Values of other authors in patent US8142760B2, “Vaccination for Lawsonia intracellularis” (priority 2008, dated 2012).
At least one structure is not confirmed: it was looked up by name or label, or the drawing left a doubt.

Tested on: Lawsonia intracellularis
Conditions: following experimental challenge, carbadox in feed; cited from earlier work

For COC(=O)N/N=C/c1c[n+]([O-])c2ccccc2[n+]1[O-] [MECADOX (carbadox), carbadox], the “elimination of live L. intracellularis from pigs” value is given as “eliminated”.
